PubChem BioAssay AID1508597 – Cure First – 2020
The deposit covers about 2,100 reagents; this is a part drawn at random. 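Calls flag viability under 80% in either arm, not effects specific to rucaparib; the reference for percent is not stated.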 Not given: the 100% reference.

- Test: 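Survival screen with siRNA in ovarian cancer cells derived from patients, with or without rucaparib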 (primary screen)
- Cell system: human ovarian carcinoma lines grown from tumours: OCI-P5x (papillary serous) and OCI-C5x (clear cell)
- Reagent: siRNA pool against human genes, 1.25 pmol siRNA per well
- Time to read-out: 72 h or 96 h, depending on the cell culture
- Challenge: rucaparib 20 µM (about IC30) or vehicle, present until read-out
- Read-out: 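Luminescent ATP-based viability assay read 72 or 96 h after transfection, depending on culture, given as normalised percent viability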
- Reading the numbers: viability, normalised: higher = more viable cells remaining
- Hit rule: 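a well counts as a hit if its normalised viability is under 80 percent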
- Calls: active = viability under 80%; inactive = viability 80% or more

With SHH (GeneID 6469), rucaparib or vehicle Rucaparib, cell line OCI-C5x (clear cell), technical replicate 1, how do the results read?
viability, normalised (%): 45.6; activity call: active

Which result is listed for SHH (GeneID 6469), rucaparib or vehicle Rucaparib, cell line OCI-C5x (clear cell), technical replicate 2?
viability, normalised (%): 36.7; activity call: active

How did the screen score SHH (GeneID 6469), rucaparib or vehicle Rucaparib, cell line OCI-C5x (clear cell), technical replicate 3?
viability, normalised (%): 36.1; activity call: active

How did the screen score SHH (GeneID 6469), rucaparib or vehicle Rucaparib, cell line OCI-P5x (serous), technical replicate 1?
viability, normalised (%): 48.6; activity call: active

For SHH (GeneID 6469), rucaparib or vehicle Rucaparib, cell line OCI-P5x (serous), technical replicate 2, how do the results read?
viability, normalised (%): 60; activity call: active

How did the screen score SHH (GeneID 6469), rucaparib or vehicle Rucaparib, cell line OCI-P5x (serous), technical replicate 3?
viability, normalised (%): 47.8; activity call: active

With SHH (GeneID 6469), rucaparib or vehicle Vehicle, cell line OCI-C5x (clear cell), technical replicate 1, what was measured?
viability, normalised (%): 47.3; activity call: active

For SHH (GeneID 6469), rucaparib or vehicle Vehicle, cell line OCI-C5x (clear cell), technical replicate 2, what was measured?
viability, normalised (%): 39.3; activity call: active

What is on record for SHH (GeneID 6469), rucaparib or vehicle Vehicle, cell line OCI-C5x (clear cell), technical replicate 3?
viability, normalised (%): 38.4; activity call: active

What is on record for SHH (GeneID 6469), rucaparib or vehicle Vehicle, cell line OCI-P5x (serous), technical replicate 1?
viability, normalised (%): 51.5; activity call: active

Which result is listed for SHH (GeneID 6469), rucaparib or vehicle Vehicle, cell line OCI-P5x (serous), technical replicate 2?
viability, normalised (%): 57.2; activity call: active

What is on record for SHH (GeneID 6469), rucaparib or vehicle Vehicle, cell line OCI-P5x (serous), technical replicate 3?
viability, normalised (%): 79.2; activity call: active

Reprinted from above (3 entries):
SHH (GeneID 6469), rucaparib or vehicle Rucaparib, cell line OCI-P5x (serous), technical replicate 1: viability, normalised (%) = 48.6; activity call = active
SHH (GeneID 6469), rucaparib or vehicle Rucaparib, cell line OCI-P5x (serous), technical replicate 2: viability, normalised (%) = 60; activity call = active
SHH (GeneID 6469), rucaparib or vehicle Rucaparib, cell line OCI-P5x (serous), technical replicate 3: viability, normalised (%) = 47.8; activity call = active

The list goes on:
For FNTA (GeneID 2339), rucaparib or vehicle Rucaparib, cell line OCI-C5x (clear cell), technical replicate 1, what does the deposit list?
viability, normalised (%): 65.2; activity call: active

For FNTA (GeneID 2339), rucaparib or vehicle Rucaparib, cell line OCI-C5x (clear cell), technical replicate 2, what does the deposit list?
viability, normalised (%): 39.1; activity call: active

What did the screen give for FNTA (GeneID 2339), rucaparib or vehicle Rucaparib, cell line OCI-C5x (clear cell), technical replicate 3?
viability, normalised (%): 40.5; activity call: active

For FNTA (GeneID 2339), rucaparib or vehicle Rucaparib, cell line OCI-P5x (serous), technical replicate 1, what was measured?
viability, normalised (%): 67.5; activity call: active

What did the screen give for FNTA (GeneID 2339), rucaparib or vehicle Rucaparib, cell line OCI-P5x (serous), technical replicate 2?
viability, normalised (%): 62.5; activity call: active

With FNTA (GeneID 2339), rucaparib or vehicle Rucaparib, cell line OCI-P5x (serous), technical replicate 3, how do the results read?
viability, normalised (%): 77.8; activity call: active

Which result is listed for FNTA (GeneID 2339), rucaparib or vehicle Vehicle, cell line OCI-C5x (clear cell), technical replicate 1?
viability, normalised (%): 64.6; activity call: active

With FNTA (GeneID 2339), rucaparib or vehicle Vehicle, cell line OCI-C5x (clear cell), technical replicate 2, what does the deposit list?
viability, normalised (%): 43.9; activity call: active

For FNTA (GeneID 2339), rucaparib or vehicle Vehicle, cell line OCI-C5x (clear cell), technical replicate 3, what does the deposit list?
viability, normalised (%): 46.5; activity call: active

With FNTA (GeneID 2339), rucaparib or vehicle Vehicle, cell line OCI-P5x (serous), technical replicate 1, what was measured?
viability, normalised (%): 77.1; activity call: active

With FNTA (GeneID 2339), rucaparib or vehicle Vehicle, cell line OCI-P5x (serous), technical replicate 2, what does the deposit list?
viability, normalised (%): 76.8; activity call: active

With FNTA (GeneID 2339), rucaparib or vehicle Vehicle, cell line OCI-P5x (serous), technical replicate 3, how do the results read?
viability, normalised (%): 92.9; activity call: inactive

What did the screen give for SQLE (GeneID 6713), rucaparib or vehicle Rucaparib, cell line OCI-C5x (clear cell), technical replicate 1?
viability, normalised (%): 72.7; activity call: active

What did the screen give for SQLE (GeneID 6713), rucaparib or vehicle Rucaparib, cell line OCI-C5x (clear cell), technical replicate 2?
viability, normalised (%): 61.9; activity call: active

How did the screen score SQLE (GeneID 6713), rucaparib or vehicle Rucaparib, cell line OCI-C5x (clear cell), technical replicate 3?
viability, normalised (%): 73; activity call: active

For SQLE (GeneID 6713), rucaparib or vehicle Rucaparib, cell line OCI-P5x (serous), technical replicate 1, how do the results read?
viability, normalised (%): 75.2; activity call: active

With SQLE (GeneID 6713), rucaparib or vehicle Rucaparib, cell line OCI-P5x (serous), technical replicate 2, what does the deposit list?
viability, normalised (%): 75.8; activity call: active

With SQLE (GeneID 6713), rucaparib or vehicle Rucaparib, cell line OCI-P5x (serous), technical replicate 3, what does the deposit list?
viability, normalised (%): 90.4; activity call: inactive

What is on record for SQLE (GeneID 6713), rucaparib or vehicle Vehicle, cell line OCI-C5x (clear cell), technical replicate 1?
viability, normalised (%): 63.6; activity call: active

For SQLE (GeneID 6713), rucaparib or vehicle Vehicle, cell line OCI-C5x (clear cell), technical replicate 2, what does the deposit list?
viability, normalised (%): 57.5; activity call: active

How did the screen score SQLE (GeneID 6713), rucaparib or vehicle Vehicle, cell line OCI-C5x (clear cell), technical replicate 3?
viability, normalised (%): 42.1; activity call: active

Which result is listed for SQLE (GeneID 6713), rucaparib or vehicle Vehicle, cell line OCI-P5x (serous), technical replicate 1?
viability, normalised (%): 78; activity call: active

What did the screen give for SQLE (GeneID 6713), rucaparib or vehicle Vehicle, cell line OCI-P5x (serous), technical replicate 2?
viability, normalised (%): 75.4; activity call: active

What did the screen give for SQLE (GeneID 6713), rucaparib or vehicle Vehicle, cell line OCI-P5x (serous), technical replicate 3?
viability, normalised (%): 88.1; activity call: inactive
